# Assay results: PubChem BioAssay AID819 (Columbia University Molecular Screening Center, 2007)
# Out of some 94,000 compounds screened, about 280 (0.3%) were called active. Inconclusive means that the source gave no clear call. Such entries were picked first, then a sample of the others.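 How the source made its calls: active means activation above 40%, about the mean plus 3 SD, also judged a hit on visual image review; inconclusive means activation above 40% but not a hit on visual review; inactive means activation not above 40% and no visual hit.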
# Experiment: enhancers of NFkB p65 translocation in HUVEC – imaging, IL-1B stimulus, high-content imaging, primary screen (AID 819);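 further: percent activation is computed from the nuclear over cytoplasmic p65 intensity ratio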
# Settings: HUVEC IL-1B NFkB p65 nuclear translocation imaging; at 2 µM; stronger effect = higher value
row,Compound,activation
1,COc1ccc(C2C3=C(CC(C)(C)CC3=O)Nc3c2c(=O)[nH]c(=O)n3Cc2ccccc2)cc1 (stereo not given),active: 102%
2,CCn1c(SC)nc(O)c(C(c2ccc(OC)c(O)c2)c2c(O)nc(SC)n(CC)c2=O)c1=O,active: 59.4%
3,CCC(C)c1ccc(O)c(NC(=O)c2ncn[nH]2)c1 (stereo not given),inactive: 35.4%
4,Cc1cc(C)c2c(=O)[nH]c(SCC(=O)Nc3ccc(N(C)C)cc3)nc2n1,inconclusive: 55.3%
5,Cc1cc(C)c(OCCCCCNCCO)c(C)c1,active: 41.7%
6,CSCC[C@H](NC(=O)Nc1ccc(C)cc1C)C(=O)O,inconclusive: 45.3%
7,COCCCNC(=O)CS(=O)(=O)Cc1nc(-c2ccccc2C)oc1C,inactive: 5.54%
8,CN(c1ccc(C(=O)NCc2ccncc2)cc1)S(C)(=O)=O,inconclusive: 54.3%
9,COc1ccccc1CNC(=O)c1ccc(SC)cc1OC,inconclusive: 82.9%
10,CCOC(=O)c1cc(CC)sc1NC(=O)c1ccc2c(c1)OCCO2,inconclusive: 41.1%
11,Cc1cccc(C)c1OCC(O)CN (stereo not given),inconclusive: 50.9%
12,CCOC(=O)c1sc2cc([N+](=O)[O-])cc(SCC(=O)OC)c2c1N,active: 50.7%
13,Cc1ccc(C)c(N(CC(=O)Nc2cc(Cl)ccc2Oc2ccccc2)S(C)(=O)=O)c1,inactive: 1.9%
14,CCOc1ccccc1NC(=O)c1ccc(F)c(S(=O)(=O)N2CCC3(CC2)OCCO3)c1,inconclusive: 50.6%
15,[O-]/[N+](=C\c1ccncc1)c1ccccc1,inconclusive: 58.1%
16,CCOC(=O)Cc1csc(NS(=O)(=O)c2ccccc2)n1,inactive: 3.08%
17,COc1ccc(-n2ncc3c(NC(C)C)ncnc32)cc1,inconclusive: 40.7%
18,COCCN1C(=O)c2ccc(C(=O)Nc3nccs3)cc2C1=O,inactive: 4.42%
19,CCCCn1c(CCn2nc(C)c(Br)c2C)n[nH]c1=S,inactive: 0.73%
20,CC(=O)c1ccc(N(C)C)c2c(N(C)C)cccc12,inconclusive: 53.7%

# Given bar-delimited: part of the list above.
row | Compound | activation
18 | COCCN1C(=O)c2ccc(C(=O)Nc3nccs3)cc2C1=O | inactive: 4.42%
19 | CCCCn1c(CCn2nc(C)c(Br)c2C)n[nH]c1=S | inactive: 0.73%
20 | CC(=O)c1ccc(N(C)C)c2c(N(C)C)cccc12 | inconclusive: 53.7%

# (cont.)

row,Compound,activation
1,COc1ccc(Cl)cc1NC(=O)COC(=O)/C=C/c1c(C)nn(C2CCS(=O)(=O)C2)c1Cl (stereo not given),inactive: 11%
2,CCCCOc1ccc(C(=O)NCc2ccco2)cc1,inconclusive: 73.5%
3,COc1ccc2c(c1)c1ncn(CCc3ccccc3)c(=O)c1n2C,inactive: -7.2%
4,Cc1cccc(C)c1NC(=O)CSCCO,inconclusive: 72.1%
5,CCCn1c(SCC(=O)c2ccc3c(c2)OCCO3)nnc1-c1ccco1,inconclusive: 43.8%
6,COC(=O)C1=C(C)N(CC(C)C)C(=O)C1,inconclusive: 45.4%
7,CC(C)(C)NC(=O)CC(CC(=O)O)c1ccccc1 (stereo not given),inconclusive: 63%
8,Cc1ccccc1-n1ncc2c(SCC(=O)NCc3cccs3)ncnc21,active: 105%
9,COc1cccc(C(=O)N(Cc2nc(-c3ccc(C)cc3)no2)C(C)C)c1,inconclusive: 44.1%
10,O=C(Nc1cccc(C(F)(F)F)c1)c1ccc2nc(N3C(=O)CCC3=O)sc2c1,inactive: 0.22%
11,CCOC(=O)c1ccc(N2C(=O)C3C(C2=O)C(C(=O)c2ccc(Cl)cc2)N2CCCC32)cc1 (stereo not given),inconclusive: 56.8%
12,COc1ccc(NC(=O)OC(C)C)cc1,inactive: -1.28%
13,COCCCNC(=O)c1nc2c(nnn2Cc2cc(C)ccc2C)c(=O)[nH]1,active: 40.9%
14,COc1cc2c(cc1OC)C(C(=O)Nc1ccc3c(c1)OCCO3)C(c1cccnc1)N(C)C2=O (stereo not given),inconclusive: 43.2%
15,COc1cc2oc(=O)c(Br)c(C)c2c(OC)c1OC,inconclusive: 42.4%
16,COc1ccccc1NC(=O)C(CCS(C)(=O)=O)N1C(=O)c2ccccc2C1=O (stereo not given),active: 42.4%
17,O=C(c1ccc(Br)cc1)N1CCN(S(=O)(=O)c2ccccc2)CC1,inconclusive: 55.4%
18,COc1ccccc1OCc1nc(Cc2ccc(Cl)cc2)no1,active: 41.6%
19,COCCCNc1nc2c(c(=O)[nH]c(=O)n2C)n1CCCc1ccccc1,inconclusive: 54.1%
20,CC(C)C(=O)Nc1ccc(-c2nc3cccnc3o2)cc1,inactive: -10.4%

row,Compound,activation
1,CCCCn1c(SCC(=O)Nc2cc(C)on2)nc2c1c(=O)n(C)c(=O)n2C,inconclusive: 50.1%
2,C=CCn1c(SCCOc2ccc(OC)cc2)nnc1C(C)NC(=O)c1ccc(OC)cc1 (stereo not given),inactive: 3.61%
3,O=C(COC(=O)CCc1c[nH]c2ccccc12)NC1CCS(=O)(=O)C1 (stereo not given),inconclusive: 44.5%
4,COc1ccc(N2C(=O)CC(NCc3cccs3)C2=O)cc1 (stereo not given),inconclusive: 65.8%
5,Fc1ccc(C(c2nnnn2C2CCCC2)N2CCc3ccccc32)cc1 (stereo not given),inactive: -0.41%
6,CC1CCCN(C(=O)CCCn2c(=S)[nH]c3ccccc3c2=O)C1 (stereo not given),inactive: 4.33%
7,CCOC(=O)c1cc(-c2ccccc2)n(CCC(=O)O)c1C,inactive: 4.78%
8,CCc1nnc(NC(=O)CSc2nnc(-c3ccoc3C)n2-c2cccc(C)c2)s1,inconclusive: 49.6%
9,Cc1cc(C(=O)COc2cccc3cccnc23)c(C)n1C,inconclusive: 40.2%
10,CCc1nnc(NC(=O)c2cccnc2)s1,active: 147%
11,CCCCC(=O)Nc1ccc2c(c1)nc1n2CCSC1,inconclusive: 48.3%
12,C/C(=N\NC(=O)CSc1nc2nc(C)cc(C)n2n1)c1ccccc1,inconclusive: 43.9%
13,CCO/C(C)=C1\C(=O)N(CC)c2ccccc21,inconclusive: 56.2%
14,O=C(Cn1c(CN2CCCCC2)nc2ccccc2c1=O)NC1CCCCC1,inconclusive: 64.3%
15,CCC(C)NC(=O)N[C@@H](Cc1ccccc1)C(=O)O (stereo not given in full),inconclusive: 40.6%
16,O=C(O)C1CCCN(S(=O)(=O)c2ccc(Cl)s2)C1 (stereo not given),inconclusive: 50.3%
17,COc1ccc(OCCSc2nnc(-c3ccoc3C)n2C)cc1,inconclusive: 45.1%
18,CCCCn1c(N)c(N(CCC(C)C)C(=O)CSc2nnc(C)s2)c(=O)[nH]c1=O,inconclusive: 40%
19,CC(C)C(=O)Nc1cc(C(F)(F)F)ccc1N1CCOCC1,inconclusive: 42.1%
20,O=C(Cc1cccs1)N/N=C/C(Br)=C/c1ccccc1,inconclusive: 79.1%
